For assay [1], the target named is anti-HIV-1 V3 antibody 1C10 (0.5γ). As to the kind of experiment: inhibition ELISA: biotinylated 1C10 on NNT20 V3 peptide.
Assay [2] shares this target. The experiment in a line: sandwich ELISA: Fab coated as capture, 1C10, biotinylated IgG #87 as detection. (In general: An ELISA detects its analyte on a solid surface through an enzyme-linked reagent.)
Assay [3] shares this target. The experiment in a line: SPR, Biacore T200, biotinylated 1C10 on SA chip, anti-idiotype antibody as analyte.

Results are given in words; binding and its absence hold for the method and conditions named. Some binding calls cover weakened binding; strength is not graded here.

B1: anti-1C10 idiotype antibody #103 (IgG) (antibody, V domains shown)
VH: QIQLVQSGPELKKPGETVKISCKASGSTFTNYGMNWVKQAPGKGLKWMGWINTNTGEPTFAEEFKGRFAFSLETSVSTAYLQINNLRNEDTATYFCARRWLRQDYFSMNYWGQGTSVTVS
VL: DIQMTQSPSSLAASLGERVSLTCRASQEISGYLSWLQQKPDRTIKRLINAATTLDSGVPKRFSGSRSGSDYSLTISSLEPEDFADYYCLQYASYPYTFGGGTKLIK
Turning to B1, the binding entry in assay [1] is listed as “binds”.

B2: Fab of anti-1C10 idiotype antibody #103 (Fab, V domains shown)
VH: QIQLVQSGPELKKPGETVKISCKASGSTFTNYGMNWVKQAPGKGLKWMGWINTNTGEPTFAEEFKGRFAFSLETSVSTAYLQINNLRNEDTATYFCARRWLRQDYFSMNYWGQGTSVTVS
VL: DIQMTQSPSSLAASLGERVSLTCRASQEISGYLSWLQQKPDRTIKRLINAATTLDSGVPKRFSGSRSGSDYSLTISSLEPEDFADYYCLQYASYPYTFGGGTKLIK
Consider B2, for which the binding result in assay [2] is on record as “binds”.

B3: anti-1C10 idiotype antibody #G46 (IgG) (antibody, V domains shown)
VH: EVQLQESGPELVKPGASVKMSCKASGYTFTSYVMHWEKQKPGQGLEWIGYINPYNDGTKYNEKFKGKATLTSDKSSSTAYMELSSLTSEDSAVYYCTRGGIIRGNYVIYNVMDYWGQGTS
VL: DIMTQSPASLSASVGETVTITCRASENIYSYLAWYQQKQGKSPQLLVYNAKTLAEGVPSRFSGSGSGTQFSLKINSLQPEDFGSYYCQHHNAPFTFGAGTKLELK
B3: the binding result in assay [3] and in assay [1] was “binds” in each case.

(Values after patent publication WO2021065846A1.)
